Reference: patent publication US20120121574A1, “ANTIMICROBIAL, ANTIVIRAL, ANTICANCER AND IMMUNOMODULATORY PEPTIDES AND USES THEREFORE” (priority 2010, published 2012)
Like-named read-outs stand apart in the source and are kept apart here. Not every detail of the peptide structures is certain; ends, links or a residue may be inferred. Some entries repeat one wording, which the source may state once for all of them. Where no end group is shown, it is not given here.

Key:
S. aureus 29213 strain = test: CFU assay against S. aureus; format: cell-based, Staphylococcus aureus; details: 5 hours 37° C.
Method: (§1) In vitro activity of N10K against S. aureus 29213 strain. The microbicidal activity of N10K peptide against S. aureus has been evaluated by a conventional CFU assay. Cells of S. aureus 29213 have been incubated at 37° C. for 5 hours in the presence of N10K at the concentration of 50, 45 or 40 micrograms/ml, or in distilled water as control growth. After the incubation period, the cell suspensions have been plated on Mueller Hinton agar, then incubated at 37° C. and observed for CFU enumeration after 24 hours.
as §1, with “T11F” for “N10K”, “bactericidal” for “microbicidal”, “40” for “45”, “30” for “40”
In vitro activity of H4L against S. aureus 29213 strain. The bactericidal activity of H4L peptide against S. aureus has been evaluated by a conventional CFU) assay. […]
In vitro activity of MoA VHCDR3 against S. aureus 29213 strain. The microbicidal activity of MoA VHCDR3 peptide against S. aureus has been evaluated by a conventional CFU assay. […]

C. albicans strain UM4 = test: CFU assay against caspofungin resistant C. albicans UM4; format: cell-based, Candida albicans; details: 6 hours 37° C.
[1] = system: E. coli ATCC 25922 strain; test: CFU assay against E. coli; format: cell-based, Escherichia coli; details: 5 hours 37° C.
[2] = system: C. neoformans 6995 strain; details: 6 hours 37° C.
[3] = system: P. aeruginosa ATCC 25853 strain; test: CFU assay against P. aeruginosa; format: cell-based, Pseudomonas aeruginosa; details: 5 hours 37° C.
[4] = system: K. pneumoniae ATCC 700603 strain; test: CFU assay against K. pneumoniae; format: cell-based, Klebsiella pneumoniae; details: 5 hours 37° C.
[5] = system: S. cerevisiae strain YGR032W; format: cell-based, Saccharomyces cerevisiae; details: for fungicidal activity (CFU): 6 hours 37° C.; for Activity: Table III, in vitro, caspofungin resistant
M. furfur 101 strain = test: CFU assay against M. furfur; format: cell-based, Malassezia furfur; details: 6 hours 30° C.
[6] = system: interaction between the CD4 receptor and the viral gp120; test: syncytium formation of CD4+ T cells with gp120 expressing cell lines; format: cell-based; details: 10 micrograms/ml, 18 hours; syncytium formation evident both in controls and treated samples
C. albicans CA-6 strain = test: murine model of systemic candidiasis; format: in vivo, Balb/c mice
[7] = system: C. albicans SC5314 strain
Method: In vitro activity of N10K against C. albicans SC5314 strain. The candidacidal activity of N10K peptide against C. albicans was assessed by a conventional colony forming unit (CFU) assay as previously described (Polonelli et al., 2003; Manfredi et al., 2005). Briefly, cells of C. albicans SC5314 were incubated at 37° C. for 6 hours (hr) in the presence of N10K at the concentration indicated of 20, 12.5 or 6.25 microgram/ml, or in distilled water as control (C). After incubation, cell suspensions were plated on Sabouraud dextrose agar and incubated at 30° C. for 48 hours when CFU were counted (** P<0.01 for N10K treated versus untreated cells, by t test). […]
The alanine-substituted derivatives (asd), defined according to the position held by the alanine-substituted aminoacid, were tested against C. albicans by a conventional colony forming unit (CFU) as previously described (Polonelli et al., 2003). Briefly, cells of C. albicans SC5314 were incubated at 37° C. for 6 hours in the presence of N10K or N10K asd at different scalar concentrations or distilled water as control. After incubation, cell suspensions were plated on Sabouraud dextrose agar and incubated at 30° C. for 48 hours when CFU were counted. Based on several independent replications, the EC50 value of each peptide was calculated by nonlinear regression analysis using Graph Pad Prism 4.01 software, San Diego, Calif., USA. […]

## TCRVDHRGLTF [Peptide T11F, T C R V D H R G L T F]
S. aureus 29213 strain; T11F 50, 40 or 30 micrograms/ml
  bactericidal activity (CFU): showed bactericidal activity
C. albicans strain UM4; T11F 5 or 2 micrograms/ml
  candidacidal activity (CFU): showed candidacidal activity
[1]; T11F 5, 3 or 2 micrograms/ml
  bactericidal activity (CFU): showed bactericidal activity
[2]; T11F 10, 5 or 4 micrograms/ml
  fungicidal activity (CFU): showed fungicidal activity
[3]; T11F 10, 5 or 2 micrograms/ml
  bactericidal activity (CFU): showed bactericidal activity
[4]; T11F 100, 80 or 60 micrograms/ml
  bactericidal activity (CFU): showed bactericidal activity
[5]; T11F 20, 10 or 5 micrograms/ml
  fungicidal activity (CFU): showed fungicidal activity
[5]
  Activity: cidal
M. furfur 101 strain; T11F 2, 1 or 0.5 micrograms/ml
  fungicidal activity (CFU): showed fungicidal activity

## NQVSLTCLVK [Peptide N10K, N Q V S L T C L V K]
S. aureus 29213 strain; N10K 50, 45 or 40 micrograms/ml
  microbicidal activity (CFU): showed fungicidal activity
C. albicans strain UM4; N10K 20 or 10 micrograms/ml
  fungicidal activity (CFU): showed fungicidal activity
[1]; N10K 50, 20 or 10 micrograms/ml
  bactericidal activity (CFU): showed bactericidal activity
[2]; N10K 20, 10 or 5 micrograms/ml
  fungicidal activity (CFU): showed fungicidal activity
[3]; N10K 50, 40 or 30 micrograms/ml
  bactericidal activity (CFU): showed bactericidal activity
[4]; N10K 100, 70 or 50 micrograms/ml
  bactericidal activity (CFU): showed bactericidal activity
[5]; N10K 20 or 10 micrograms/ml
  fungicidal activity (CFU): showed fungicidal activity
[5]
  Activity: cidal
[6]
  effect on syncytium formation: doesn't work on the interaction between the CD4 receptor and the viral gp120
M. furfur 101 strain; N10K 10, 8 or 3 micrograms/ml
  fungicidal activity (CFU): showed fungicidal activity
C. albicans CA-6 strain; 50 micrograms intraperitoneally 1, 24 and 48 hr after infection, 7 and 12 days after infection
  CFU recovery from the kidneys: P<0.05 (N10K treated vs untreated mice)
C. albicans CA-6 strain; 50 micrograms intraperitoneally 1, 24 and 48 hr after infection, versus SP treated mice, Mantel-Cox Logrank test P<0.05
  survival curves, difference between experimental and control groups: significant
C. albicans CA-6 strain; mouse, in vivo
  Activity: cidal
[7]
  EC50asd/EC50N10K: 1
[7]; N10K 20, 12.5 or 6.25 microgram/ml, 6 hr 37° C.
  candidacidal activity (CFU): showed candidacidal activity
HIV-1; HIV IIIB (X4) and BaL (R5), 1-10 micrograms/ml, PBMCs treated every 4 days after infection
  antiviral activity (p24 antigen) against both the viral strains: significant antiviral activity
HIV-1; Table III, Virus HIV-1
  Activity: inhibitory
